Results from article PMC12204631.
Results are given in words; binding and its absence hold for the method and conditions named. Binding seen in cells or lysates may run through a third protein. A yes stands for co-enrichment or nearness to the bait. Other partners may have been found. Where a sequence is shown, tags or fusion partners need not be part of it.

T1: 6HIS-HA-JHD2 (S. cerevisiae) (UniProt P47156)
T1 sequence: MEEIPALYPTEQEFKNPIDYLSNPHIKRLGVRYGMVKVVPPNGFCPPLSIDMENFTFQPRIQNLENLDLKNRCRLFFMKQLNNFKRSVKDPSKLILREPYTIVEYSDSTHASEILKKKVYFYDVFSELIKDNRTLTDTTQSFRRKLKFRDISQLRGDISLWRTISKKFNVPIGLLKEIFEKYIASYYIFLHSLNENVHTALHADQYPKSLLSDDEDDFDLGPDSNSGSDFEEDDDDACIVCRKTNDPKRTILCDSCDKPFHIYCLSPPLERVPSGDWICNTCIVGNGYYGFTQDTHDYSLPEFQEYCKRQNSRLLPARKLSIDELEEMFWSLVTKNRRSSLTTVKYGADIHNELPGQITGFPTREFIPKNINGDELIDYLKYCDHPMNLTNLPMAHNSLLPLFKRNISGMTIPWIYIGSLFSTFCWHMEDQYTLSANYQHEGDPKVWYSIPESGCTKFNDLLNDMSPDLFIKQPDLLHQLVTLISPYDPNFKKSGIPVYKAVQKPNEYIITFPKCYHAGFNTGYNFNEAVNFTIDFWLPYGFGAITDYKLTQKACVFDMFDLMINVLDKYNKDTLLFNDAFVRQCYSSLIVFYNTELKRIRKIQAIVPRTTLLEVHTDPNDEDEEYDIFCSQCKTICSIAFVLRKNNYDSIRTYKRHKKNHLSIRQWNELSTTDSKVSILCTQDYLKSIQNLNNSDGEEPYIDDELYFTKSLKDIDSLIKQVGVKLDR

B1: IRC15 (protein, UniProt Q02733 1-499)
chain: MGGEDEILSTMEDFAAVYDVLVIGCGPGGFTAAMQASQAGLLTACVDQRASLGGAYLVDGAVPSKTLLYESYLYRLLQQQELIEQRGTRLFPAKFDMQAAQSALKHNIEELGNVYKRELSKNNVTVYKGTAAFKDPHHVEIAQRGMKPFIVEAKYIVVATGSAVIQCPGVAIDNDKIISSDKALSLDYIPSRFTIMGGGTIGLEIACIFNNLGSRVTIVESQSEICQNMDNELASATKTLLQCQGIAFLLDTRVQLAEADAAGQLNITLLNKVSKKTYVHHCDVLMVSIGRRPLLKGLDISSIGLDERDFVENVDVQTQSLLKYPHIKPIGDVTLGPMLALKAEEQAIRAIQSIGCTGSDGTSNCGFPPNVLYCQPQIGWVGYTEEGLAKARIPYQKGRVLFSQNVRYNTLLPREENTTVSPFIKVLIDSRDMKILGVHMINDDANELLSQASMAVSLGLTAHDVCKVPFPHPSLSESFKQAVQLAMANGTSPGVHVRE
B2: CDC31 (protein, UniProt P06704 1-161)
chain: MSKNRSSLQSGPLNSELLEEQKQEIYEAFSLFDMNNDGFLDYHELKVAMKALGFELPKREILDLIDEYDSEGRHLMKYDDFYIVMGEKILKRDPLDEIKRAFQLFDDDHTGKISIKNLRRVAKELGETLTDEELRAMIEEFDLDGDGEINENEFIAICTDS
B3: BUB2 (protein, UniProt P26448 1-306)
chain: MTSIEDLISNPPLLLHSSLSQLRYLILSEGLPISEDKQQQRTRCYVWTVLSQTSMEASTQRYLALLKLGPPSTTIYQKIKNDTSRTFQTDPNFRNRVSEDALIRCLSCFAWQTQQRRQKTRFGRIPVSTYVQGMNVLLAPLLYSCPSEPMAYQLFTKLCYEMIPTYLTKNLNGAQNGAKLLDISLRIIDPKLSKFLSDNLLTAEIYGMPSILTLSSCNKPLDQVIKLWDFMFAYGFHMNILFVVAFLVKMRSKVFKSDSPVNLLRQFPDFDADEIIRLGVGFIAKIPAQIYDLLVDHLTDPDIYIP
B4: KAR3 (protein, UniProt P17119 1-729)
chain: MESLPRTPTKGRSTQHLSTPSPKNDILAMNGHKRRNTTTPPPKHTLLKPQRTDIHRHSLASQSRISMSPNRELLKNYKGTANLIYGNQKSNSGVTSFYKENVNELNRTQAILFEKKATLDLLKDELTETKEKINAVNLKFETLREEKIKIEQQLNLKNNELISIKEEFLSKKQFMNEGHEIHLKQLAASNKKELKQMENEYKTKIEKLKFMKIKQFENERASLLDKIEEVRNKITMNPSTLQEMLNDVEQKHMLEKEEWLTEYQSQWKKDIELNNKHMQEIESIKKEIENTLKPELAEKKKLLTEKRNAYEAIKVKVKEKEEETTRLRDEVALKQKTNLETLEKIKELEEYIKDTELGMKELNEILIKEETVRRTLHNELQELRGNIRVYCRIRPALKNLENSDTSLINVNEFDDNSGVQSMEVTKIQNTAQVHEFKFDKIFDQQDTNVDVFKEVGQLVQSSLDGYNVCIFAYGQTGSGKTFTMLNPGDGIIPSTISHIFNWINKLKTKGWDYKVNCEFIEIYNENIVDLLRSDNNNKEDTSIGLKHEIRHDQETKTTTITNVTSCKLESEEMVEIILKKANKLRSTASTASNEHSSRSHSIFIIHLSGSNAKTGAHSYGTLNLVDLAGSERINVSQVVGDRLRETQNINKSLSCLGDVIHALGQPDSTKRHIPFRNSKLTYLLQYSLTGDSKTLMFVNISPSSSHINETLNSLRFASKVNSTRLVSRK
B5: SMC4 (protein, UniProt Q12267 1-1418)
chain: MSDSPLSKRQKRKSAQEPELSLDQGDAEEDSQVENRVNLSENTPEPDLPALEASYSKSYTPRKLVLSSGENRYAFSQPTNSTTTSLHVPNLQPPKTSSRGRDHKSYSQSPPRSPGRSPTRRLELLQLSPVKNSRVELQKIYDRHQSSSKQQSRLFINELVLENFKSYAGKQVVGPFHTSFSAVVGPNGSGKSNVIDSMLFVFGFRANKMRQDRLSDLIHKSEAFPSLQSCSVAVHFQYVIDESSGTSRIDEEKPGLIITRKAFKNNSSKYYINEKESSYTEVTKLLKNEGIDLDHKRFLILQGEVENIAQMKPKAEKESDDGLLEYLEDIIGTANYKPLIEERMGQIENLNEVCLEKENRFEIVDREKNSLESGKETALEFLEKEKQLTLLRSKLFQFKLLQSNSKLASTLEKISSSNKDLEDEKMKFQESLKKVDEIKAQRKEIKDRISSCSSKEKTLVLERRELEGTRVSLEERTKNLVSKMEKAEKTLKSTKHSISEAENMLEELRGQQTEHETEIKDLTQLLEKERSILDDIKLSLKDKTKNISAEIIRHEKELEPWDLQLQEKESQIQLAESELSLLEETQAKLKKNVETLEEKILAKKTHKQELQDLILDLKKKLNSLKDERSQGEKNFTSAHLKLKEMQKVLNAHRQRAMEARSSLSKAQNKSKVLTALSRLQKSGRINGFHGRLGDLGVIDDSFDVAISTACPRLDDVVVDTVECAQHCIDYLRKNKLGYARFILLDRLRQFNLQPISTPENVPRLFDLVKPKNPKFSNAFYSVLRDTLVAQNLKQANNVAYGKKRFRVVTVDGKLIDISGTMSGGGNHVAKGLMKLGTNQSDKVDDYTPEEVDKIERELSERENNFRVASDTVHEMEEELKKLRDHEPDLESQISKAEMEADSLASELTLAEQQVKEAEMAYVKAVSDKAQLNVVMKNLERLRGEYNDLQSETKTKKEKIKGLQDEIMKIGGIKLQMQNSKVESVCQKLDILVAKLKKVKSASKKSGGDVVKFQKLLQNSERDVELSSDELKVIEEQLKHTKLALAENDTNMNETLNLKVELKEQSEQLKEQMEDMEESINEFKSIEIEMKNKLEKLNSLLTYIKSEITQQEKGLNELSIRDVTHTLGMLDDNKMDSVKEDVKNNQELDQEYRSCETQDESEIKDAETSCDNYHPMNIDETSDEVSRGIPRLSEDELRELDVELIESKINELSYYVEETNVDIGVLEEYARRLAEFKRRKLDLNNAVQKRDEVKEQLGILKKKRFDEFMAGFNIISMTLKEMYQMITMGGNAELELVDSLDPFSEGVTFSVMPPKKSWRNITNLSGGEKTLSSLALVFALHKYKPTPLYVMDEIDAALDFRNVSIVANYIKERTKNAQFIVISLRNNMFELAQQLVGVYKRDNRTKSTTIKNIDILNRT
B6: SMC5 (protein, UniProt Q08204 1-1093)
chain: MTSLIDLGRYVERTHHGEDTEPRSKRVKIAKPDLSSFQPGSIIKIRLQDFVTYTLTEFNLSPSLNMIIGPNGSGKSTFVCAVCLGLAGKPEYIGRSKKVEDFIKNGQDVSKIEITLKNSPNVTDIEYIDARDETIKITRIITRSKRRSDYLINDYQVSESVVKTLVAQLNIQLDNLCQFLSQERVEEFARLKSVKLLVETIRSIDASLLDVLDELRELQGNEQSLQKDLDFKKAKIVHLRQESDKLRKSVESLRDFQNKKGEIELHSQLLPYVKVKDHKEKLNIYKEEYERAKANLRAILKDKKPFANTKKTLENQVEELTEKCSLKTDEFLKAKEKINEIFEKLNTIRDEVIKKKNQNEYYRGRTKKLQATIISTKEDFLRSQEILAQTHLPEKSVFEDIDIKRKEIINKEGEIRDLISEIDAKANAINHEMRSIQRQAESKTKSLTTTDKIGILNQDQDLKEVRDAVLMVREHPEMKDKILEPPIMTVSAINAQFAAYLAQCVDYNTSKALTVVDSDSYKLFANPILDKFKVNLRELSSADTTPPVPAETVRDLGFEGYLSDFITGDKRVMKMLCQTSKIHTIPVSRRELTPAQIKKLITPRPNGKILFKRIIHGNRLVDIKQSAYGSKQVFPTDVSIKQTNFYQGSIMSNEQKIRIENEIINLKNEYNDRKSTLDALSNQKSGYRHELSELASKNDDINREAHQLNEIRKKYTMRKSTIETLREKLDQLKREARKDVSQKIKDIDDQIQQLLLKQRHLLSKMASSMKSLKNCQKELISTQILQFEAQNMDVSMNDVIGFFNEREADLKSQYEDKKKFVKEMRDTPEFQSWMREIRSYDQDTKEKLNKVAEKYEEEGNFNLSFVQDVLDKLESEIAMVNHDESAVTILDQVTAELRELEHTVPQQSKDLETIKAKLKEDHAVLEPKLDDIVSKISARFARLFNNVGSAGAVRLEKPKDYAEWKIEIMVKFRDNAPLKKLDSHTQSGGERAVSTVLYMIALQEFTSAPFRVVDEINQGMDSRNERIVHKAMVENACAENTSQYFLITPKLLTGLHYHEKMRIHCVMAGSWIPNPSEDPKMIHFGETSNYSFD

Each binder was assayed against T1, 6HIS-HA-JHD2 (S. cerevisiae) (assay: affinity purification with mass spectrometry; whole cell extracts of a wild-type strain with 6HIS-HA-JHD2 induced from the GAL1 promoter for 6 hours; Ni-NTA agarose and anti-HA agarose beads at 4°C for 24 hours; proteins found with the empty vector strain excluded).

binding, binds:
B1, B2, B3, B4, B5, B6
